Measured data: PubChem BioAssay AID1259308 (NCATS, 2017)
Aim: 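Knock-downs that increase output of a recombinant reporter protein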 (primary screen). System: human HEK293 embryonic kidney cells stably expressing firefly luciferase (HEK-CMV-Luc2-Hygro). Reagent: single siRNA against human genes, 0.8 pmol siRNA per well. Timing: 72 h. Read-out: 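Reporter luminescence and viable-cell signal on separate replicate plates, given as percent of non-targeting control and median/MAD z-scores, plus per-cell luciferase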. Direction: total luciferase, z-score: higher = more reporter protein produced. Hit rule: 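An siRNA counts as active if its total luciferase robust z-score exceeds 3; genes with two or more such siRNAs out of three were retested with fresh siRNAs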. Meaning of the calls: active = raised luciferase; inactive = no rise.
In all, the deposit lists about 59,000 reagents; this is a part drawn at random. About 1,510 of them (2.6%) were called active. 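Calls use total luciferase alone and ignore viability, so some active siRNAs may act by altering cell number.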 Entries without a mark were called inactive. The numbers tell different reagents against one gene apart. Not all columns of the deposit are shown. No sequences are given here.

total luciferase, z-score, by gene and reagent
LOC653698: #1 1.42; #2 0.034; #3 1.88
FAM90A20: #1 -0.358; #2 -0.255; #3 0.856
MAOA: #1 -0.281; #2 1.78; #3 0.0602
ASPH: #1 -0.197; #2 0.116; #3 -0.338
CKM: #1 0.633; #2 0.443; #3 -1.1
ZBTB35: #1 -0.082; #2 -0.218; #3 -0.995

Targets above whose gene name begins with L or l:
total luciferase, z-score, by gene and reagent
LOC653698: #1 1.42; #2 0.034; #3 1.88

Next results follow:
total luciferase, z-score, by gene and reagent
COQ10B: #1 2.29; #2 -0.962; #3 -0.516
GTF2I: #1 -0.628; #2 0.21; #3 2.15; #4 1.71; #5 0.53; #6 1.06
